Some of the results follow. Single values are uncertain, as repeats are few or missing.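 Imaging used 1,536-well plates; nuclei positive for cleaved PARP by antibody were divided by total DNA-stained nuclei to yield the apoptosis fraction. Doses for screening kept most cells viable, and cell lines differ markedly in resting and induced cleaved-PARP levels.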
Test system: MeWo
Experiment: cleaved PARP positive nuclei fraction relative to DMSO control; melanoma cells; higher = more apoptosis
Conditions: library dose: low library concentration; 72 h

Row | SMILES | cleaved PARP positive nuclei fraction
1 | C[C@]12O[C@H](C[C@]1(O)CO)n1c3ccccc3c3c4c(c5c6ccccc6n2c5c31)CNC4=O [Lestaurtinib] + CCN(CC)CCCCNc1ncc2cc(-c3cc(OC)cc(OC)c3)c(NC(=O)NC(C)(C)C)nc2n1 [PD173074] (first compound 0.004 µM, partner dose 0.1 µM) | 47%
2 | N#Cc1c(O)c2c(-c3ccc(-c4ccccc4O)cc3)csc2[nH]c1=O + O=C(Oc1ccc([N+](=O)[O-])cc1)N1CCC(C(O)(c2ccc3c(c2)OCO3)c2ccc3c(c2)OCO3)CC1 [JZL184] (first compound 2 µM, partner dose 1 µM) | 89.7%
3 | C[C@]12O[C@H](C[C@]1(O)CO)n1c3ccccc3c3c4c(c5c6ccccc6n2c5c31)CNC4=O [Lestaurtinib] + O=c1cc(-c2cccc3c2Sc2ccccc2S3)oc(N2CCOCC2)c1 [KU55933] (first compound 0.004 µM, partner dose 1 µM) | 88.7%
4 | CCc1ccc(CCOc2ccc(CC3SC(=O)NC3=O)cc2)nc1 (centres undefined) [pioglitazone] + O=C(Oc1ccc([N+](=O)[O-])cc1)N1CCC(C(O)(c2ccc3c(c2)OCO3)c2ccc3c(c2)OCO3)CC1 [JZL184] (first compound 2 µM, partner dose 1 µM) | 51.8%
5 | COc1cc2c(Oc3ccc4[nH]c(C)cc4c3F)ncnc2cc1OCCCN1CCCC1 [cediranib] + Cc1cc(SCc2sc(-c3ccc(C(F)(F)F)c(F)c3)nc2C)ccc1OCC(=O)O [GW0742] (first compound 0.4 µM, partner dose 2 µM) | 62.8%
6 | Cc1cc(SCc2sc(-c3ccc(C(F)(F)F)c(F)c3)nc2C)ccc1OCC(=O)O + O=C(Oc1ccc([N+](=O)[O-])cc1)N1CCC(C(O)(c2ccc3c(c2)OCO3)c2ccc3c(c2)OCO3)CC1 [JZL184] (first compound 2 µM, partner dose 1 µM) | 40.4%
7 | Cc1cc(SCc2sc(-c3ccc(C(F)(F)F)c(F)c3)nc2C)ccc1OCC(=O)O + COc1cc(N2CCC(N3CCN(C)CC3)CC2)ccc1Nc1ncc(Cl)c(Nc2ccccc2S(=O)(=O)C(C)C)n1 [NVP-TAE684] (first compound 2 µM, partner dose 0.08 µM) | 104%
8 | C[C@]12O[C@H](C[C@]1(O)CO)n1c3ccccc3c3c4c(c5c6ccccc6n2c5c31)CNC4=O [Lestaurtinib] + COC(=O)c1sccc1S(=O)(=O)Nc1ccc(Nc2ccccc2)cc1OC [GSK0660] (first compound 0.004 µM, partner dose 1 µM) | 64.5%
9 | C[C@]12O[C@H](C[C@]1(O)CO)n1c3ccccc3c3c4c(c5c6ccccc6n2c5c31)CNC4=O [Lestaurtinib] + CC1(C)NC(=O)N(c2ccc([N+](=O)[O-])c(C(F)(F)F)c2)C1=O [nilutamide] (first compound 0.004 µM, partner dose 1 µM) | 88.7%
10 | O=C1NC(=O)/C(=C/c2ccc(-c3ccc(F)cc3O)o2)S1 + O=C(Oc1ccc([N+](=O)[O-])cc1)N1CCC(C(O)(c2ccc3c(c2)OCO3)c2ccc3c(c2)OCO3)CC1 [JZL184] (first compound 1 µM, partner dose 1 µM) | 118%
11 | Oc1cc(-c2nc(-c3ccccc3)[nH]c2-c2ccncc2)ccc1Cl + O=C(Oc1ccc([N+](=O)[O-])cc1)N1CCC(C(O)(c2ccc3c(c2)OCO3)c2ccc3c(c2)OCO3)CC1 [JZL184] (first compound 0.2 µM, partner dose 1 µM) | 29.1%
12 | C[C@]12O[C@H](C[C@]1(O)CO)n1c3ccccc3c3c4c(c5c6ccccc6n2c5c31)CNC4=O [Lestaurtinib] + O=S(=O)(c1ccccc1)N(CC(F)(F)F)c1ccc(C(O)(C(F)(F)F)C(F)(F)F)cc1 [T0901317] (first compound 0.004 µM, partner dose 1.4 µM) | 21.5%
13 | NCC(=O)Nc1ccc(-n2nc(C(F)(F)F)cc2-c2ccc3c(ccc4ccccc43)c2)cc1 + O=C(Oc1ccc([N+](=O)[O-])cc1)N1CCC(C(O)(c2ccc3c(c2)OCO3)c2ccc3c(c2)OCO3)CC1 [JZL184] (first compound 1 µM, partner dose 1 µM) | 71.9%
14 | C[C@@H]1CCN(C(=O)CC#N)C[C@@H]1N(C)c1ncnc2[nH]ccc12 + C/C(O)=C(\C#N)C(=O)Nc1cc(Br)ccc1Br [LFM-A13] (first compound 1 µM, partner dose 2 µM) | 50.8%

Single values from the list:
In cleaved PARP positive nuclei fraction, C[C@]12O[C@H](C[C@]1(O)CO)n1c3ccccc3c3c4c(c5c6ccccc6n2c5c31)CNC4=O [Lestaurtinib] + O=S(=O)(c1ccccc1)N(CC(F)(F)F)c1ccc(C(O)(C(F)(F)F)C(F)(F)F)cc1 [T0901317] (first compound 0.004 µM, partner dose 1.4 µM) is entered as 21.5%
In cleaved PARP positive nuclei fraction, Cc1cc(SCc2sc(-c3ccc(C(F)(F)F)c(F)c3)nc2C)ccc1OCC(=O)O + O=C(Oc1ccc([N+](=O)[O-])cc1)N1CCC(C(O)(c2ccc3c(c2)OCO3)c2ccc3c(c2)OCO3)CC1 [JZL184] (first compound 2 µM, partner dose 1 µM) is entered as 40.4%
